Laboratory results published in patent US20210276987A1, “PHARMACEUTICAL AGENTS FOR USE IN SMOKING AND TOBACCO CESSATION” (Washington State University, priority 2018, published 2021).
Where a name gives a salt, the structure may show the parent alone. Some results were stated once for a whole list of compounds, not compound by compound.

System: CYPs 1A2, 2B6, 2C8, 2C9, 2C19, 2D6, 2E1 and 3A4
Settings: for no more than one tested hepatic CYP for any given agent (very selective for CYP2A6)

NCc1ccc(-c2cnccc2Cl)s1 [Compound AB, (5-(4-chloropyridin-3-yl)thiophene-2-yl)methanamine Dihydrochloride]
CYPhepatic/CYP2A6 IC50 ratio: < 5.0
